# Record: PubChem BioAssay AID1259254 (NCATS, 2017)
# Assay: 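Gene knock-downs that lead to re-replication, shown by excess G2 DNA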 (primary screen)
# Cells: human HCT116 colorectal cancer cells
# Reagent: single siRNA against human genes
# Duration: 3 days
# Detection: 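Imaged Hoechst DNA stain sorts each cell into a cycle phase by DNA amount; per plate, G2 fraction set to 0% for non-targeting and 100% for GMNN siRNA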
# Direction: G2 robust z-score and G2 cells, % of GMNN control: higher = more G2 cells, more excess DNA replication
# Hit rule: 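Active siRNAs have a G2 robust z of 5 or more median absolute deviations over the median, which in these data means about 38% or higher of GMNN control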
# This is an unselected part of about 59,000 deposited reagents. In the full data, about 1,550 (2.6%) are marked active. 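G2 share is only a proxy for re-replication; each gene was hit by three separate siRNAs, and active genes were retested.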 A number with no mark means an inactive call. Reagents against one gene are numbered here. Not all columns of the deposit are shown. Not given: the amount of reagent.
gene,siRNA no.,G2 robust z-score,"G2 cells, % of GMNN control"
MASP1,1,1.19,11.4
MASP1,2,5.11 (active),38.9
MASP1,3,0.212,4.46
FAM3B,1,0.629,7.4
FAM3B,2,-0.859,-3.08
FAM3B,3,1.75,15.3
PRAP1,1,-0.552,-0.916
PRAP1,2,-0.555,-0.939
PRAP1,3,1.57,14
MAP1LC3A,1,-0.0303,2.75
MAP1LC3A,2,0.354,5.46
MAP1LC3A,3,-0.954,-3.75
MMP2,1,0.325,5.25
MMP2,2,-0.327,0.665
MMP2,3,-0.495,-0.517
PIWIL2,1,0.731,8.11
PIWIL2,2,1.25,11.8
PIWIL2,3,1.03,10.2
MYADM,1,1.06,10.4
MYADM,2,-0.783,-2.54
MYADM,3,1.41,12.9
PDCD2L,1,-0.198,1.58
PDCD2L,2,-1.08,-4.64
PDCD2L,3,0.34,5.36
MRPL42,1,-0.742,-2.25
MRPL42,2,0.842,8.89
MRPL42,3,0.567,6.95
BRDTP1,1,-0.391,0.22
BRDTP1,2,0.882,9.17
BRDTP1,3,2.26,18.8
MON1A,1,0.165,4.13
MON1A,2,0.701,7.9
MON1A,3,-0.189,1.64
SLC37A1,1,1.79,15.6
SLC37A1,2,-0.474,-0.365
SLC37A1,3,0.604,7.22
MDM4,1,0.728,8.09
MDM4,2,4.75,36.4
MDM4,3,-0.18,1.7
BPNT1,1,1.75,15.2
BPNT1,2,-0.808,-2.71
BPNT1,3,1.22,11.5
B3GNT9,1,2.19,18.4
B3GNT9,2,-0.568,-1.03
B3GNT9,3,-0.327,0.664
FAM135A,1,0.143,3.97
FAM135A,2,-0.0485,2.63
FAM135A,3,-0.593,-1.21
LRIF1,1,4.38,33.8
LRIF1,2,-0.427,-0.0371
LRIF1,3,1.43,13.1
SH3PXD2A,1,-0.375,0.326
SH3PXD2A,2,-0.387,0.247
SH3PXD2A,3,-0.124,2.1
FECH,1,-1.51,-7.67
FECH,2,-0.98,-3.93
FECH,3,-0.124,2.1
ISM2,1,1.68,14.8
ISM2,2,-0.462,-0.28
ISM2,3,0.179,4.23
SEC23IP,1,-1.19,-5.42
SEC23IP,2,-0.771,-2.46
SEC23IP,3,-0.435,-0.0943
NAGS,1,-1.3,-6.18
NAGS,2,-1.32,-6.29
NAGS,3,0.473,6.3
CATSPER3,1,6.45 (active),48.3
CATSPER3,2,1.7,14.9
CATSPER3,3,-0.632,-1.48
ATP6V0D1,1,-0.593,-1.2
ATP6V0D1,2,-0.633,-1.49
ATP6V0D1,3,-1.51,-7.63
INPP5K,1,3.49,27.5
INPP5K,2,1.56,14
INPP5K,3,-1.03,-4.3
ILK,1,1.5,13.6
ILK,2,8.73 (active),64.4
ILK,3,1.29,12
TEX13B,1,-0.0789,2.41
TEX13B,2,-0.647,-1.58
TEX13B,3,0.324,5.25
OR13C3,1,-0.832,-2.89
OR13C3,2,2.19,18.4
OR13C3,3,-0.11,2.19
HAX1,1,-1.05,-4.42
HAX1,2,0.24,4.65
HAX1,3,1.04,10.3
